Results taken from publication doi:10.1101/2021.05.05.442785 (bioRxiv, 2021).
No constants are given. Whether binding was seen depends on the method and setting. Binding seen in cells or lysates may run through a third protein. Some results given as binding are weak or reduced against the parent protein; the word gives no strength. Tags and fused reporters may be left off the sequences shown.

Molecular target: T1, S-adenosylmethionine lyase (SAMase) of bacteriophage T3, C-terminal His-tagged (bacteriophage T3) (UniProt P07693)
T1 sequence: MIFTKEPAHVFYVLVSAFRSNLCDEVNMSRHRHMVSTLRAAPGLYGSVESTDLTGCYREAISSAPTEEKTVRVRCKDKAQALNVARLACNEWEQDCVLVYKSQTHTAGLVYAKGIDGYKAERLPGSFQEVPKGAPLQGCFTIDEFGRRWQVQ
Experiment: pull-down

B1: E. coli methionine S-adenosyltransferase (MAT), endogenous (enzyme, UniProt P0A817 1-384)
chain: MAKHLFTSESVSEGHPDKIADQISDAVLDAILEQDPKARVACETYVKTGMVLVGGEITTSAWVDIEEITRNTVREIGYVHSDMGFDANSCAVLSAIGKQSPDINQGVDRADPLEQGAGDQGLMFGYATNETDVLMPAPITYAHRLVQRQAEVRKNGTLPWLRPDAKSQVTFQYDDGKIVGIDAVVLSTQHSEEIDQKSLQEAVMEEIIKPILPAEWLTSATKFFINPTGRFVIGGPMGDCGLTGRKIIVDTYGGMARHGGGAFSGKDPSKVDRSAAYAARYVAKNIVAAGLADRCEIQVSYAIGVAEPTSIMVETFGTEKVPSEQLTLLVREFFDLRPYGLIQMLDLLHPIYKETAAYGHFGREHFPWEKTDKAQLLRDAAGLK
  binding: binds
